In the supplement of paper PMC10735217:
This is one part of the list. Single values are uncertain here, since repeats match poorly.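 Human kidney-derived cells stably carry a construct in which eight TEAD-binding elements drive luciferase, measured by luminescence in a drug-repurposing library screen. A hit is any compound whose signal exceeds the plate mean by more than five robust Z scores.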

Test system: HEK293A TEAD-LUC reporter
Assay: TEAD-luciferase reporter activity (YAP activation), robust Z score vs plate; higher = stronger YAP/TEAD activation
Conditions: 24 h

Row | SMILES | TEAD-luciferase reporter activity (compound concentration: 200 nM) | TEAD-luciferase reporter activity (compound concentration: 2 uM) | TEAD-luciferase reporter activity (compound concentration: 10 uM)
1 | c1ccc2c(c1)cc(-c1nn[nH]n1)c1nnnn12 | inactive: 0.331 | inactive: -0.534 | inactive: -1.46
2 | Nc1ccn(C2CCC(CO)O2)c(=O)n1 (stereo not given) [zalcitabine] | inactive: -0.738 | inactive: 0.388 | inactive: 1.31
3 | Cc1cccc(C(OCCN(C)C)c2ccccc2)c1 (stereo not given) | inactive: -0.164 | inactive: 3.99 | inactive: 2.68
4 | C=CCNC(=O)SC1=NCCS1 | inactive: -2.39 | inactive: -2.27 | inactive: -0.989
5 | CC(C)(C)n1cc(C(=O)O)c(=O)c2cc(F)c(N3C[C@H]4C[C@@H]3CN4)nc21 | inactive: -1.97 | inactive: -0.688 | inactive: -1.13
6 | CNC(=O)[C@@H](Cc1ccccc1)N(C)C(=O)[C@@H](Cc1ccc2ccccc2c1)N(C)C(=O)/C=C/CC(C)(C)N [Tabimorelin] | inactive: 1.79 | inactive: -0.886 | inactive: -1.13
7 | Cc1ccc2c(Br)cc(Br)c(OC(=O)c3ccc(Cl)cc3)c2n1 | inactive: -0.0349 | inactive: 0.0138 | inactive: 0.0953
8 | COc1ccc(OC)c(-n2c(N)nc3cc(C(F)(F)F)ccc32)c1 | inactive: 0.0968 | inactive: -0.225 | inactive: 0.643
9 | OC(c1ccccc1)C1CCN(CCc2ccccc2)CC1 (stereo not given) [Glemanserin] | inactive: -0.574 | inactive: -1.15 | inactive: 0.168
10 | CS(=O)(=O)N[C@@H](CCCCN)C(=O)NC[C@H](CC1(C(=O)N[C@@H](Cc2ccc(O)cc2)C(=O)O)CCCC1)C(=O)O | inactive: -0.0587 | inactive: -0.0331 | inactive: 0.643
11 | CC(C)(Sc1cc(C(C)(C)C)c(O)c(C(C)(C)C)c1)Sc1cc(C(C)(C)C)c(O)c(C(C)(C)C)c1 [Panavir] | inactive: -0.536 | inactive: 3.87 | inactive: -0.609
12 | NCCCC(=O)O | inactive: -0.7 | inactive: -0.275 | inactive: -0.0766
13 | COC(=O)C1=C(C)NC(C)=C(C(=O)OCCc2ccc(N3CCN(C(c4ccccc4)c4ccccc4)CC3)cc2)C1c1cccc([N+](=O)[O-])c1 (stereo not given) | inactive: -0.543 | inactive: -0.162 | inactive: -0.0128
14 | CCCCCn1c(=O)[nH]c(=O)c2[nH]c(Cl)nc21 | inactive: 2.27 | inactive: -0.605 | inactive: 0.0803
15 | COc1ccc([C@@H]2c3ncccc3[C@H](c3ccc4c(c3)OCO4)[C@H]2C(=O)O)cc1 | inactive: -0.436 | inactive: -0.983 | inactive: -0.0149
16 | CCCCCCCCCCCCCCCCCCCCCCO [1-Docosanol] | inactive: -1.57 |  | inactive: 1.13
17 | CCCCCCCCCCCCCCCCCCCCCCO [docosanol] |  | inactive: -1.73 | 
18 | CC(=O)SC[C@@H](C)C(=O)N1CCC[C@H]1C(=O)N[C@@H](Cc1ccccc1)C(=O)O [alacepril] | inactive: 1.61 | inactive: -0.679 | inactive: 0.516
19 | COc1ccc(-c2nc(C(F)(F)F)sc2-c2ccc(OC)cc2)cc1 [Itazigrel] | inactive: -1.27 | inactive: -0.0239 | inactive: 1.86

Row | SMILES | TEAD-luciferase reporter activity (compound concentration: 200 nM) | TEAD-luciferase reporter activity (compound concentration: 2 uM) | TEAD-luciferase reporter activity (compound concentration: 10 uM)
20 | O=C([O-])[C@@](O)(CSc1ccccc1)CS(=O)(=O)c1ccc(-c2ccc(Cl)cc2)cc1 | inactive: -0.933 | inactive: 0.441 | inactive: -1.63
21 | O=C(N[C@@H](Cc1ccccc1)C(=O)O)c1cc(-c2ccc(Nc3nc4ccc(F)cc4s3)cc2)no1 | inactive: -0.307 | inactive: -0.689 | inactive: -0.412
22 | COc1cc(N)ccc1-c1nc2c(C)nn(C3CCCCC3)c2c(=O)[nH]1 | inactive: -0.911 | inactive: -0.0646 | inactive: 1.64
23 | O=C1NC(=O)/C(=C/c2ccc3nccc(-c4ccncc4)c3c2)S1 | inactive: -1.42 | inactive: -1.97 | inactive: -1.2
24 | COC(=O)c1ccccc1OC(=O)c1cccs1 | inactive: -1.36 | inactive: -1.51 | inactive: 1.51
25 | N#Cc1ccc(C(O)CN2CC=C(C3=NNC(=O)CC3)CC2)cc1 (stereo not given) | inactive: -0.616 | inactive: -0.421 | inactive: 0.626
26 | O=C1Nc2ccc(Cl)cc2[C@@](C#CC2CC2)(C(F)(F)F)N1 | inactive: -1.36 | inactive: -0.979 | inactive: 0.976
27 | C#C[C@]1(O)CC[C@H]2[C@@H]3CCc4cc(OC)ccc4[C@H]3CC[C@@]21C | inactive: 0.0625 | inactive: -0.636 | inactive: -0.968
28 | CCCNC(=O)Nc1ccc(Oc2ncnc3cc(OC)c(OC)cc23)cc1Cl | inactive: -1.32 | inactive: -1.45 | inactive: -1.41
29 | O=C(O)C1CCc2cc(C3CCCCC3)c(Cl)cc21 (stereo not given) [clidanac] | inactive: 0.393 | inactive: 0.402 | active: 5.53
30 | CN1CCN(c2nc(C3=C(c4c[nH]c5ccccc45)C(=O)NC3=O)c3ccccc3n2)CC1 [Sotrastaurin] | inactive: 1.07 | inactive: 0.555 | inactive: 0.507
31 | Cc1cccc(F)c1C(=O)Nc1cnc(-c2cc3c(cc2Cl)OC(F)(F)O3)cn1 | inactive: -2.17 |  | inactive: -1.26
32 | CC(=O)Nc1c(Br)cc(Br)cc1CN(C)C12CC3CC(CC(C3)C1)C2 | inactive: -2.05 | inactive: -1.15 | inactive: 1.8
33 | CC(Oc1ccc(Oc2cnc3ccc(Cl)cc3n2)cc1)C(=O)O (stereo not given) | inactive: -1.07 | inactive: 0.0759 | inactive: -1.3
34 | Nc1nc(S)c2nc[nH]c2n1 [Tioguanine] | inactive: -1.18 | inactive: 4.44 | inactive: -0.00645
35 | CCCc1c(OCCCOc2ccc3c(=O)cc(CCC(=O)O)oc3c2CCC)ccc(C(C)=O)c1O | inactive: 1.78 | inactive: -0.211 | inactive: 0.879
36 | CC1CCc2cc(F)cc3c(=O)c(C(=O)O)cn1c23 (stereo not given) | inactive: 0.296 |  | inactive: -0.691
37 | CC1CCc2cc(F)cc3c(=O)c(C(=O)O)cn1c23 (stereo not given) [flumequine] |  | inactive: 0.21 | 
38 | c1ccc(C(O[C@@H]2CCCN(CCc3ccc4c(c3)OCO4)C2)c2ccccc2)cc1 [Zamifenacin] | inactive: -1.41 | inactive: 0.478 | inactive: 0.441

Reformatted: results already given.
Row	SMILES	TEAD-luciferase reporter activity (compound concentration: 200 nM)	TEAD-luciferase reporter activity (compound concentration: 2 uM)	TEAD-luciferase reporter activity (compound concentration: 10 uM)
21	O=C(N[C@@H](Cc1ccccc1)C(=O)O)c1cc(-c2ccc(Nc3nc4ccc(F)cc4s3)cc2)no1	inactive: -0.307	inactive: -0.689	inactive: -0.412
24	COC(=O)c1ccccc1OC(=O)c1cccs1	inactive: -1.36	inactive: -1.51	inactive: 1.51
27	C#C[C@]1(O)CC[C@H]2[C@@H]3CCc4cc(OC)ccc4[C@H]3CC[C@@]21C	inactive: 0.0625	inactive: -0.636	inactive: -0.968
29	O=C(O)C1CCc2cc(C3CCCCC3)c(Cl)cc21 (stereo not given) [clidanac]	inactive: 0.393	inactive: 0.402	active: 5.53

Next part:

Row | SMILES | TEAD-luciferase reporter activity (compound concentration: 200 nM) | TEAD-luciferase reporter activity (compound concentration: 2 uM) | TEAD-luciferase reporter activity (compound concentration: 10 uM)
39 | O=C(O)COc1ccc(CCNS(=O)(=O)c2ccccc2)s1 [Linotroban] | inactive: 0.267 | inactive: -1.04 | inactive: -0.17
40 | CCCCCCCC(=O)OCC(=O)[C@@]1(O)CC[C@H]2[C@@H]3CCC4=CC(=O)CC[C@]4(C)[C@H]3[C@@H](O)C[C@@]21C | inactive: -1.81 | inactive: 0.244 | inactive: 1.83
41 | Nc1ccn([C@@H]2CO[C@H](CO)O2)c(=O)n1 [Troxacitabine] | inactive: -0.799 | inactive: -1.41 | inactive: 2.88
42 | CCc1c2c(nc3ccc(O)cc13)-c1cc3c(c(=O)n1C2)COC(=O)[C@]3(O)CC [7-Ethyl-10-hydroxycamptothecin] | inactive: 0.813 |  | inactive: -0.241
43 | CCc1c2c(nc3ccc(O)cc13)-c1cc3c(c(=O)n1C2)COC(=O)[C@]3(O)CC |  | inactive: -1.29 | 
44 | CCCc1nn(CC(F)(F)F)c(CO)c1Cc1ccc(-c2ccccc2-c2nnn[nH]2)cc1 | inactive: -0.309 | inactive: -0.837 | inactive: 0.41
45 | COc1ccccc1Oc1c(NS(=O)(=O)c2ccc(C(C)(C)C)cc2)nc(-c2ncccn2)nc1OCCO [Bosentan] | inactive: -0.0354 |  | inactive: 1.98
46 | COc1ccccc1Oc1c(NS(=O)(=O)c2ccc(C(C)(C)C)cc2)nc(-c2ncccn2)nc1OCCO [bosentan once-daily] |  | inactive: -0.975 | 
47 | O=C1c2c(O)c(=O)ccn2N([C@@H]2c3ccccc3SCc3c2ccc(F)c3F)[C@@H]2COCCN12 [Baloxavir] | inactive: 1.22 |  | inactive: 0.624
48 | CCOC(=O)COc1ccc(C(=O)c2ccc(O)c(CN)c2)c(Cl)c1Cl | inactive: -1.67 | inactive: -1.03 | inactive: -1.5
49 | CCC(c1ccccc1)N1Cc2cc3c(cc2C[C@H]1C(=O)NC(Cc1ccc(C#N)cc1)C(=O)O)N(C)C(=O)[C@@H](c1ccc(OCc2ccc(Cl)c(Cl)c2)cc1)O3 (stereo not given in full) [analog of TTP-054] | inactive: 0.118 | inactive: -0.795 | inactive: 4.94
50 | CC(C)[C@@H]1CC[C@@H](C)C[C@H]1O [Menthol] | inactive: -1.2 | inactive: -1.14 | inactive: 0.221
51 | CCCCCN(C)CCC(O)(P(=O)(O)O)P(=O)(O)O [ibandronate, Lanco Biosciences] | inactive: -0.605 |  | inactive: 0.147
52 | CC(C)C[C@@H](NC(=O)[C@@H](Cc1ccccc1)NC(=O)[C@H](N)Cc1ccccc1)C(=O)N[C@H](CCCCN)C(=O)N1CCC(N)(C(=O)O)CC1 | inactive: 0.147 | inactive: -0.714 | inactive: 0.381
53 | C[N+](C)(C)CCCCC[N+](C)(C)C | inactive: -0.96 | inactive: -0.835 | inactive: -1.05
54 | COc1cc(NS(=O)(=O)c2ccc(N)cc2)ncn1 | inactive: -0.377 | inactive: 0.809 | inactive: -0.52
55 | O=C1CCC(N2C(=O)c3ccccc3C2=O)C(=O)N1 (stereo not given) [Thalidomide50-35-1] | inactive: -0.0159 |  | inactive: -1.65
56 | O=C1CCC(N2C(=O)c3ccccc3C2=O)C(=O)N1 (stereo not given) [thalidomide, Andrulis] |  | inactive: -0.287 | 
